Assay results: PubChem BioAssay AID1347426 (Functional Genomics Laboratory (NCATS/FGL), 2020)
About 1,400 (4.5%) of roughly 31,000 sequences were called active.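 Rule for the calls: active = median seed-adjusted z-score above 1 or below -1; inactive = the rest.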 This is one part of the list.

assay: Novel Modifiers of Survival Motor Neuron (SMN) Protein: Gene Identification via Genome-wide siRNA Screen; conditions: HEK293T SMN2-luciferase reporter, siRNA knockdown, 72 h; actives lie on both sides;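 note: luminescence tracks full-length SMN protein made from the SMN2 reporter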
Method in brief: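 Steps: spot 1 pmol siRNA, add Lipofectamine RNAiMax in serum-free DMEM, seed HEK293T SMN2–luciferase reporter cells; incubate 72 h at 37 °C; add ONE-Glo; normalize luminescence to control siRNA, log10, MAD. Candidates: |MAD| > 1.0.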

| Sequence | median seed-adjusted z-score |
| --- | --- |
| GGGAGGGCAUCAACAAGAATT against RGS19 | inactive: 0.295 |
| GCAUGAUGUCUGUUACACUTT against DLAT | inactive: 0 |
| CCUCUGUCCUCUACAAGAATT against TRMT5 | inactive: 0 |
| AGAUUGGAUUCACCACAGATT against OGDHL | inactive: -0.0878 |
| AAAACAAAAAUGAUCUACATT against SLC10A1 | inactive: -0.19 |
| CCUGGGAUCUGAGUACAUATT against HMGA1 | inactive: 0.557 |
| CCACAAGUUUGAUUUCGAATT against NLRC4 | inactive: -0.00107 |
| GAUUCGAAAUGGACCAAGATT against FKBP14 | inactive: -0.455 |
| GGUUGUAGAGUUGAAAGUUTT against UBE2O | inactive: 0.125 |
| GUGUAUUACCUGAGAAUCATT against CYP24A1 | inactive: 0.136 |
| GGUGCGAGAUUUACUCAGATT against ALAS2 | inactive: -0.142 |
| GAACUAUAUUCUUCUGUGATT against CDH1 | inactive: -0.24 |
| GGAGUGAUAGUAACACCUUTT against ILF2 | inactive: -0.19 |
| CUACUUGACGAAACCCAGATT against MKI67IP | inactive: 0.426 |
| CCCUCUUCGUCAUGACCAATT against P2RX4 | inactive: 0.467 |
| GGGUGAUACCAUUCAAUGUTT against PPIA | inactive: 0.0169 |
| CCCUGUUGGGUAUAGAUGATT against ATF4 | inactive: 0 |
| AGAAAGUACUGCACAGAGATT against PCDH8 | active: -1.03 |
| GGUGGUUCCUAUCCUGAGATT against SPRR2G | inactive: 0.358 |
| GACCUACUACAUAGAAUUATT against RABL3 | inactive: 0.843 |
| GUCUCAUUCCAACCUUAUATT against PIGN | inactive: 0.215 |
| GCUGACAAAUCAACACGUATT against ANKZF1 | inactive: 0.176 |
| AGGGACCGGUUCAUCGAAATT against CSDA | inactive: 0 |

| Sequence | median seed-adjusted z-score |
| --- | --- |
| CAAUGAUGGUUGAUCUACATT against RANBP6 | inactive: -0.696 |
| GCACUCACCUUGUAGUUGATT against ECT2 | inactive: 0.04 |
| GCCCUUAUCAUAAAUGCUUTT against DCTN6 | inactive: 0.211 |
| GAUUGCUAUUAGUCCCAAATT against RBKS | inactive: 0.229 |
| GACCCACAAAUAUACCAUUTT against SMAP1 | inactive: -0.201 |
| AGACGAUUGGUAGCACCUATT against ADCY6 | inactive: -0.0652 |
| GAAGAUCGCCGUCAAGAUGTT against EDA | inactive: 0.316 |
| GCCUUGUCAAUGUUAGUCATT against NPHP3 | inactive: 0.239 |
| AGAGGUCCACCCUUCUUUATT against SEBOX | inactive: 0.2 |
| AGAACUUCUCGUCACUGUATT against RALGDS | inactive: -0.235 |
| GAACAUUAACCUGCGAGAATT against LSM4 | inactive: -0.679 |
| UUAUAGAACUCACACUCAATT against ZIM2 | inactive: -0.565 |
| CAACGGCAACGGAGAGGAUTT against SLC24A6 | inactive: -0.792 |
| CAGAAAGAGCAGUACUUUUTT against MYF5 | inactive: -0.786 |
| GAUGUUCUGUUAGAGCUGATT against PCGF1 | inactive: 0.508 |
| GCAUCAUCUGUAACAAGAUTT against WNT7A | inactive: 0.0931 |
| GGAUAGAGAUUCCAAAUAUTT against RXFP2 | inactive: 0.511 |
| UGACGCAGGUAGAACGUAATT against PINX1 | inactive: 0.11 |
| ACUGCACGGUGGUUCAGUATT against SLC27A1 | inactive: 0.253 |
| GGAAGGACAUUGUCGUUAUTT against KLKBL4 | inactive: -0.0132 |
| CCUUCCCGCCCAUCUCUUATT against MVD | inactive: -0.561 |
| GCAACUAAUAAGACCAAGATT against SWAP70 | inactive: -0.704 |
| GCCCUGUAAGCACGAGUUUTT against RNF215 | inactive: -0.889 |

Reprinted at random: 3 records from the list

| Sequence | median seed-adjusted z-score |
| --- | --- |
| GCCCUUAUCAUAAAUGCUUTT against DCTN6 | inactive: 0.211 |
| ACUGCACGGUGGUUCAGUATT against SLC27A1 | inactive: 0.253 |
| CCUUCCCGCCCAUCUCUUATT against MVD | inactive: -0.561 |

(list continues)

| Sequence | median seed-adjusted z-score |
| --- | --- |
| CUAAAUCUUUUGCAGUUUATT against PLEKHF2 | inactive: 0.0967 |
| GAUCCUCUAGUAAAGGGAATT against GNG11 | inactive: 0.00609 |
| GGGAUGGACAUAAACGAAUTT against TUBB1 | inactive: -0.289 |
| CAGUGUGAAUGGGACAUCATT against EPHA8 | inactive: 0.217 |
| GCUUCUGUCUCGGUACCGATT against PKLR | inactive: 0.587 |
| CCAACAUCUGGAACGAAUATT against KCNT2 | inactive: 0.449 |
| CGAUUUCUGCAAACGGAGATT against HSPD1 | inactive: -0.146 |
| GGCUUUAUGAAAAUCGAAATT against MMP21 | inactive: -0.185 |
| UGAAAGGACUUGUCUGAAATT against CHST6 | inactive: 0.372 |
| ACAUCAAGAAUGACCCGGATT against EXOC7 | inactive: -0.231 |
| GUAAGGUCUUUAGUCGAAATT against ZNF347 | inactive: 0 |
| GCUACAAGCUUGACAAGCATT against EIF3B | inactive: -0.71 |
| CCUUAUGAGUUCUCACGGATT against TG | inactive: 0.0137 |
| GAAGCAGGAUGAACUGAAATT against ATP5I | inactive: -0.871 |
| GGAAGAGAGCUAUUCGUCUTT against GMEB1 | inactive: 0.198 |
| GGAUUAAAGAGAAGAUCUATT against ERH | active: -1.25 |
| GCCCUGUGAGUACCUCUUUTT against LGR6 | inactive: 0.237 |
| CAGUGUAGUUGUUCGAGAUTT against KPNB1 | inactive: 0.165 |
| GCUAUUACCUCAUCAUGCUTT against FA2H | inactive: 0.0497 |
| GAAUGGUGUGGAUCUCCUATT against ARPC5 | inactive: -0.479 |
| GGGCUUAGGUGUGAUCAUUTT against USH2A | inactive: 0.0673 |
| GCUGAGGAGUCAGUGCAUGTT against TNFRSF18 | inactive: 0.154 |
| CCUUCUUUCCGGACAAUUUTT against VIPR1 | inactive: 0.168 |
